# Results: the supplement of paper PMC4635364
# Counter-ions that a name gives are not always drawn. Some of the results follow. Repeats in this data set agree poorly, so a single value says little.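 Cells: ReNCell VM human fetal ventral-midbrain neural progenitors, differentiated mitogen-free. Blinded raters compared doublecortin-stained (early neurons) or tyrosine hydroxylase-stained (dopaminergic neurons) images with untreated wells, where 0 means no change. After repeats and both raters were averaged, compounds scoring 2 or above became hits for retesting.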
# System: ReNCell VM
# Assay: dopaminergic neuron differentiation score (TH+ cell fraction vs untreated, manual image score) (score (0 to 3)); higher = more TH+ dopaminergic neuron differentiation
# Conditions: library: Prestwick; 2 uM; 4 weeks; BDNF 10 ng/ml + GDNF 10 ng/ml
row,SMILES,dopaminergic neuron differentiation score
1,CCCCN(CCCC)CCC(O)c1cc2c(Cl)cc(Cl)cc2c2cc(C(F)(F)F)ccc12 (stereo not drawn) [Halofantrine hydrochloride],inactive: 0
2,COc1ccc2cc(CCC(C)=O)ccc2c1 [Nabumetone],inactive: 0
3,CC(C)(C)CC(C)(C)c1ccc(OCCOCC[N+](C)(C)Cc2ccccc2)cc1 [Benzethonium chloride],inactive: 0
4,CN(C)CCCC1(c2ccc(F)cc2)OCc2cc(C#N)ccc21 (stereo not drawn) [Citalopram Hydrobromide],inactive: 0
5,CN1CCN2c3ccccc3Cc3ccccc3C2C1 (stereo not drawn) [Mianserine hydrochloride],inactive: 0
6,NCCNCCNCCNCCN [Tetraethylenepentamine pentahydrochloride],inactive: 0
7,CCCCOc1ccc(C(=O)CCN2CCCCC2)cc1 [Dyclonine hydrochloride],inactive: 1

# Same assay, conditions: library: Spectrum; 2 uM; 4 weeks; BDNF 10 ng/ml + GDNF 10 ng/ml
row,SMILES,dopaminergic neuron differentiation score
1,COC(=O)C1=C(C)NC(C)=C(C(=O)OCC(C)C)C1c1ccccc1[N+](=O)[O-] (stereo not drawn),inactive: 0
2,COc1cccc(-c2cc(=O)c3cc(OC)ccc3o2)c1,inactive: 0
3,CC(CN(C)C)CN1c2ccccc2CCc2ccccc21 (stereo not drawn),inactive: 0
4,Cc1cccc2c3c(ccc12)C1=C(C(=O)C3=O)[C@@H](C)CO1,inactive: 0
5,CC(C)(Oc1ccc(C(=O)c2ccc(Cl)cc2)cc1)C(=O)O,inactive: 0
6,COc1ccc2cc(C(C)C(=O)O)ccc2c1 (stereo not drawn),inactive: 0
7,COC1(C)CCC2OC2(C)CCC2C1CC2(C)C (stereo not drawn),inactive: 1
8,CC(C)(C)CC(C)(C)c1cc(Cc2cc(C(C)(C)CC(C)(C)C)cc(-n3nc4ccccc4n3)c2O)c(O)c(-n2nc3ccccc3n2)c1,inactive: 0
9,CC(=O)O[C@@H]1CC2C(C)(C)C(=O)C3OC3[C@]2(C)C2CC[C@@]3(C)[C@H](c4ccoc4)OC(=O)C4OC43[C@@]21C (stereo partly drawn),inactive: 0
10,C[N+]1(C)[C@@H]2CC[C@H]1C[C@@H](OC(=O)C(O)c1ccccc1)C2 (stereo partly drawn),inactive: 1
11,NCCCC(=O)O [gamma-AMINOBUTYRIC ACID],inactive: 1
12,NC(=O)N1c2ccccc2CC(=O)c2ccccc21,inactive: 0
13,CCCOc1cc(N)ccc1C(=O)OCCN(CC)CC,inactive: 0
14,NS(=O)(=O)c1cc2c(cc1Cl)N=CNS2(=O)=O,inactive: 0
15,O=c1cc(-c2ccc(O)cc2)oc2ccc(O)cc12,inactive: 0
16,COc1cc2c(cc1OC)C1C(=O)c3c(cc4c(c3O)C=CC(C)(C)O4)OC1CO2 (stereo not drawn) [beta-TOXICAROL],inactive: 0

# Reformatted with tabs: part of the list above
row	SMILES	dopaminergic neuron differentiation score
9	CC(=O)O[C@@H]1CC2C(C)(C)C(=O)C3OC3[C@]2(C)C2CC[C@@]3(C)[C@H](c4ccoc4)OC(=O)C4OC43[C@@]21C (stereo partly drawn)	inactive: 0
13	CCCOc1cc(N)ccc1C(=O)OCCN(CC)CC	inactive: 0
